# From the supplement of paper PMC8728848
# The list shows a part of the results.
# B1: pTFF2 (Sus scrofa), P01359 (protein)
# chain: KPAACRCSRQDPKNRVNCGFPGITSDQCFTSGCCFDSQVPGVPWCFKPLPAQESEECVMEVSARKNCGYPGISPEDCAARNCCFSDTIPEVPWCFFPMSVEACHY
# What was measured:
# Experiment in all cases: glycan array binding signal (z-score within array); higher = stronger binding
# Conditions in all cases: glycan notation: IUPAC condensed, linker removed
# [1] = target: Gal(b1-4)GlcNAc(b1-6)Gal(b1-4)GlcNAc
# Method in brief: (§1)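 Glycan array data were curated from 3228 arrays in the Consortium for Functional Glycomics database and kept only where the protein sequence was available. Glycan names were converted to IUPAC-condensed notation, and columns mapping to the same glycan were averaged. The binding signal is a within-array Z-score, averaged across arrays of the same protein sequence at different concentrations or buffers and across linkers. Negative Z-scores can be read as non-binding.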
# [2] = target: Gal(b1-4)GlcNAc(b1-6)GalNAc
# Method in brief: as §1
# [3] = target: Gal(b1-4)GlcNAc(b1-6)[Gal(b1-3)]GalNAc
# Method in brief: as §1
# [4] = target: Gal(b1-4)GlcNAc(b1-6)[Gal(b1-4)GlcNAc(b1-3)]GalNAc
# Method in brief: as §1
# Gal(b1-4)GlcNAc6P = target: Gal(b1-4)GlcNAc6P
# Method in brief: as §1
# Gal(b1-6)Gal = target: Gal(b1-6)Gal
# Method in brief: as §1
# Gal3S(b1-3)GalNAc = target: Gal3S(b1-3)GalNAc
# Method in brief: as §1
# Gal3S(b1-3)GlcNAc = target: Gal3S(b1-3)GlcNAc
# Method in brief: as §1
# [5] = target: Gal3S(b1-3)[Fuc(a1-4)]GlcNAc
# Method in brief: as §1
# Gal3S(b1-4)Glc = target: Gal3S(b1-4)Glc
# Method in brief: as §1
# Gal3S(b1-4)Glc6S = target: Gal3S(b1-4)Glc6S
# Method in brief: as §1
# Gal3S(b1-4)GlcNAc = target: Gal3S(b1-4)GlcNAc
# Method in brief: as §1
# [6] = target: Gal3S(b1-4)[Fuc(a1-3)]Glc6S
# Method in brief: as §1
# [7] = target: Gal3S(b1-4)[Fuc(a1-3)]GlcNAc
# Method in brief: as §1
# [8] = target: Gal3S(b1-4)[Fuc(a1-3)]GlcNAc6S
# Method in brief: as §1
# Gal3S4S(b1-4)GlcNAc = target: Gal3S4S(b1-4)GlcNAc
# Method in brief: as §1
# Gal3S6S(b1-4)GlcNAc = target: Gal3S6S(b1-4)GlcNAc
# Method in brief: as §1
# Gal3S6S(b1-4)GlcNAc6S = target: Gal3S6S(b1-4)GlcNAc6S
# Method in brief: as §1
# Gal4S(b1-4)GlcNAc = target: Gal4S(b1-4)GlcNAc
# Method in brief: as §1
# Gal4S6S(b1-4)GlcNAc = target: Gal4S6S(b1-4)GlcNAc
# Method in brief: as §1
# Gal6P(b1-4)GlcNAc = target: Gal6P(b1-4)GlcNAc
# Method in brief: as §1
# Gal6S(b1-3)GlcNAc = target: Gal6S(b1-3)GlcNAc
# Method in brief: as §1
# Gal6S(b1-3)GlcNAc6S = target: Gal6S(b1-3)GlcNAc6S
# Method in brief: as §1
binder,measurement,setting,value
B1,glycan array binding signal (z-score),[1],-1.25
same,glycan array binding signal (z-score),[2],-0.755
same,glycan array binding signal (z-score),[3],1.73
same,glycan array binding signal (z-score),[4],-0.34
same,glycan array binding signal (z-score),Gal(b1-4)GlcNAc6P,-0.191
same,glycan array binding signal (z-score),Gal(b1-6)Gal,0.252
same,glycan array binding signal (z-score),Gal3S(b1-3)GalNAc,0.185
same,glycan array binding signal (z-score),Gal3S(b1-3)GlcNAc,0.204
same,glycan array binding signal (z-score),[5],-0.013
same,glycan array binding signal (z-score),Gal3S(b1-4)Glc,-0.465
same,glycan array binding signal (z-score),Gal3S(b1-4)Glc6S,0.305
same,glycan array binding signal (z-score),Gal3S(b1-4)GlcNAc,-0.175
same,glycan array binding signal (z-score),[6],-0.105
same,glycan array binding signal (z-score),[7],-1.21
same,glycan array binding signal (z-score),[8],-0.755
same,glycan array binding signal (z-score),Gal3S4S(b1-4)GlcNAc,0.606
same,glycan array binding signal (z-score),Gal3S6S(b1-4)GlcNAc,-1.01
same,glycan array binding signal (z-score),Gal3S6S(b1-4)GlcNAc6S,1.86
same,glycan array binding signal (z-score),Gal4S(b1-4)GlcNAc,0.493
same,glycan array binding signal (z-score),Gal4S6S(b1-4)GlcNAc,-0.182
same,glycan array binding signal (z-score),Gal6P(b1-4)GlcNAc,0.214
same,glycan array binding signal (z-score),Gal6S(b1-3)GlcNAc,-2.99
same,glycan array binding signal (z-score),Gal6S(b1-3)GlcNAc6S,-1.65

# Nothing new here: entries from further up.
binder,measurement,setting,value
B1,glycan array binding signal (z-score),Gal3S(b1-4)Glc6S,0.305
same,glycan array binding signal (z-score),Gal3S(b1-4)GlcNAc,-0.175
